Laboratory results: PMC4070973
The exact form of at least one protein or probe is not confirmed. Protein sequences can lack the tags named with them.

Biological target: T1, Cry1 (UniProt G0RI60)
T1 sequence (looked up): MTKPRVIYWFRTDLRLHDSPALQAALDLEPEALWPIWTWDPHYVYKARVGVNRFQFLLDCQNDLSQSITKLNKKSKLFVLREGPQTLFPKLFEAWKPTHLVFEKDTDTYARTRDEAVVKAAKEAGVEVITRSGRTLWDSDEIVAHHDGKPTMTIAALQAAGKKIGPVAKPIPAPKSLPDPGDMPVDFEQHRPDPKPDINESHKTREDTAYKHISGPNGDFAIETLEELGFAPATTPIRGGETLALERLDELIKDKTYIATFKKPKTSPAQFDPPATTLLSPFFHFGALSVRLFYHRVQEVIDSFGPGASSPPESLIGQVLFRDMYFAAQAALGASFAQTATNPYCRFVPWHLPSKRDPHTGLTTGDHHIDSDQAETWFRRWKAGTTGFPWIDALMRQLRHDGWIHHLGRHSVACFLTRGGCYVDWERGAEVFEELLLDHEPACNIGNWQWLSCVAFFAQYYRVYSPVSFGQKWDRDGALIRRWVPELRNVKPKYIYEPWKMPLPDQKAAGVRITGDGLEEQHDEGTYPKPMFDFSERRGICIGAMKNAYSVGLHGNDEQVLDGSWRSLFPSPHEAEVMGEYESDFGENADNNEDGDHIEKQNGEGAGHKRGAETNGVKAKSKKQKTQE
Assay: EMSA
Conditions: Cry1 0-25.35 uM, 1 nM DNA, complex increases with protein, similar to 6-4PP DNA; EMSA: 1 nM 32P-DNA, 0-25.35 uM Cry1, 10% non-denaturing acrylamide gel; binding buffer, pH and temperature not stated (repair assay: 100 mM Tris-HCl pH 8.0, 1 mM DTT); recombinant protein; residues 1-628; protein details: N-terminal 6xHis (pColdI); label: 32P on complementary strand (T4 PNK, 5')

“AGCTACCATGCCTGCACGAATTAAGCAATTCGTAATCATGGTCATAGCT (double strand) [undamaged 49 bp oligomer]”: binds.
